Laboratory results from PubChem BioAssay AID1671190 (National Center for Advancing Translational Sciences (NCATS), 2021).
“And” between values parts separate entries of the source, which are not always exact repeats. Equal entries are not always repeated. Among all 580,000 compounds or so, about 6,100 (1.1%) were called active. Inconclusive results, whose numbers are uncertain, are shown with a selection of clear calls. Calls come from the whole dose curve; as a rule, active = well fitted inhibition curve with a large enough effect; inconclusive = small, poorly fitted or top-dose-only effect, or another doubt; inactive = no such curve, though single readings can be large or run the other way. A potency beside an inconclusive call is a rough fit, not a confirmed value.
% is set by controls: 0 for no effect and ±100 for the full control effect; potency is the fitted concentration of half-maximal effect.

By UniProt entry, the sequences of proteins in these tests, tags left out. Where a name states a change or a piece, a line headed by the entry shows the natural chain unless it says otherwise.
UniProt P18054: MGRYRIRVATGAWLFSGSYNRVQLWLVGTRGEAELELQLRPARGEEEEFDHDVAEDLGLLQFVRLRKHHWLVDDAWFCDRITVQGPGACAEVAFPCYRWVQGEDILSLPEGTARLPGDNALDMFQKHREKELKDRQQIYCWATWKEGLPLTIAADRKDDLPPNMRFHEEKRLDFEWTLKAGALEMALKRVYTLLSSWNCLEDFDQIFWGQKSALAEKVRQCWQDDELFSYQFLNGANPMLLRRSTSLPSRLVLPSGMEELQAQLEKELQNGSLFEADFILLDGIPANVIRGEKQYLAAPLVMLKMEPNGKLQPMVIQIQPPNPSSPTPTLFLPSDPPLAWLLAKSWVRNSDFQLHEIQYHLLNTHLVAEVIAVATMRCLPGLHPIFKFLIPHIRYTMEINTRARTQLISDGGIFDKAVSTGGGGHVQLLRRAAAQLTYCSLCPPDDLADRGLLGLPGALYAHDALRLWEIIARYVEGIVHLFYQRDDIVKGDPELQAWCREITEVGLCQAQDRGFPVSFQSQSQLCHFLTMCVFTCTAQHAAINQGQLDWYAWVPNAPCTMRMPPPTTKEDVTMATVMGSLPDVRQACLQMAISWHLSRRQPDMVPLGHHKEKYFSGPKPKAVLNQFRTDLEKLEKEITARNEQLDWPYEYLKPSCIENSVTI

What follows are compounds tested against Polyunsaturated fatty acid lipoxygenase ALOX12 (Homo sapiens) (UniProt P18054) (assay: Primary qHTS assay for inhibitors of human arachidonate 12S-lipoxygenase (ALOX12): Round 2). Details: purified 12hLO, xylenol orange hydroperoxide absorbance; activity change, negative = inhibition: at 108 µM (top of the series) unless noted.
How it was run: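 Purified human 12hLO at 150 nM in 25 mM Hepes, 0.01% Triton X-100, pH 7.0, preincubated 15 min at room temperature with compound. Reaction started with 40 uM arachidonic acid, 30 min at room temperature. Hydroperoxide measured by Fe-xylenol orange, 573/405 nm absorbance ratio.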
In the case of `CN1CCN(CC(O)COC(c2ccc(Cl)cc2)c2ccc(Cl)cc2)CC1` (stereo not drawn), the Potency was inconclusive: 31.6 µM [inhibitor, partial curve, poor fit].
`C/C(=N\S(=O)(=O)c1ccc(C)cc1)Nc1cc(C(C)C)c(O)cc1C` was tested, and the Potency was inconclusive: 79.4 µM [inhibitor, partial curve, poor fit].
For `N#C/C(=C\c1c(N2CCC(C(N)=O)CC2)nc2ccccn2c1=O)S(=O)(=O)c1ccc(Cl)cc1`, the Potency was inconclusive: 100 µM [inhibitor, partial curve, poor fit].
With `S=c1[nH]ccc2ccccc12` the Potency was inconclusive: 35.5 µM [inhibitor, single point] and inconclusive: 17.8 µM [inhibitor, partial curve].
For `COc1ccc2c(C)cc(SCC(=O)NCC3CCCCC3)nc2c1`, the Potency was inconclusive: 39.8 µM [inhibitor, single point].
In the case of `CCOc1ccc(S(=O)(=O)N(CC)CC(=O)N2CCCC2)cc1C`, the Potency was inconclusive: 35.5 µM [inhibitor, partial curve, poor fit].
`CCC1(c2ccc(F)cc2)NC(=O)N(CC(=O)NCc2ccc(F)cc2)C1=O` (stereo not drawn) was tested, and the Potency was inconclusive: 50.1 µM [inhibitor, single point].
In the case of `COC(=O)c1cc(S(=O)(=O)Nc2ccc(F)cc2C)c[nH]1`, the “activity change, negative = inhibition” value was inactive: -41.2%.
`NC(=S)N/N=C/c1cccc(Cl)c1Cl` was tested, and the Potency was inconclusive: 22.4 µM [inhibitor, partial curve, poor fit].
With `CCN(CC)c1ccc2c(Cl)cc(=O)oc2c1` the Potency was inconclusive: 31.6 µM [inhibitor, single point].
In the case of `COc1ccc(NS(=O)(=O)c2ccc(C)c(NC(=O)NC3CCCCC3)c2)cc1`, the Potency was inconclusive: 112 µM [inhibitor, partial curve, poor fit].
For `COc1ccc(CCn2c(NN)nc3c2c(=O)[nH]c(=O)n3C)cc1`, the “activity change, negative = inhibition” value was inactive: 9.69%.
For `Ic1ccc2noc(-c3ccccc3)c2c1`, the “activity change, negative = inhibition” value was inactive: -33.1%.
With `Cc1ccc(NC(=O)C2CC(=O)N(C(C)c3ccccc3)C2)cc1` (stereo not drawn) the Potency was inconclusive: 44.7 µM [inhibitor, partial curve, poor fit].
In the case of `COCOCCn1cc(CN2CCS(=O)(=O)N(Cc3ccc(-c4ccc(OC)cc4)cc3)C(C)C2=O)nn1` (stereo not drawn), the Potency was inconclusive: 100 µM [inhibitor, single point].
With `Cc1ccc2nc(-c3ccc4c(c3)OCO4)cc(C(=O)O)c2c1` the Potency was inconclusive: 79.4 µM [inhibitor, single point].
With `Cc1ccc(NC(=O)CC2S/C(=N/N=C3/NC(=O)CS3)NC2=O)cc1` (stereo not drawn) the Potency was inconclusive: 100 µM [inhibitor, single point].
With `Nc1nc2c(ncn2[C@@H]2O[C@H](C(=O)NCC(c3ccccc3)c3ccccc3)[C@@H](O)[C@H]2O)c(=O)[nH]1` the “activity change, negative = inhibition” value was inactive: -3.19%.
With `Cc1ccc(C2=CC(c3ccc(F)cc3)n3nnnc3N2)cc1` (stereo not drawn) the Potency was inconclusive: 50.1 µM [inhibitor, partial curve, poor fit].
`NC(c1csc(NC(=O)Nc2cccc(Cl)c2)n1)C1CCCCC1` (stereo not drawn) was tested, and the Potency was inconclusive: 89.1 µM [inhibitor, single point].
With `C/C(=N\NC(=O)CSCc1ccccc1Cl)c1cc(O)ccc1O` the “activity change, negative = inhibition” value was inactive: -28.7%.
`CCc1ccc(OCc2ccccc2C(=O)Nc2ccc3nc(C)cc(N)c3c2)cc1` was tested, and the Potency was inconclusive: 13.7 µM [inhibitor, partial curve] and inconclusive: 44.7 µM [inhibitor, partial curve, poor fit].
With `O=C(Nc1ccc(N2CCOCC2)c(C(=O)O)c1)c1ccc(Br)cc1` the Potency was inconclusive: 89.1 µM [inhibitor, partial curve, poor fit].
In the case of `CC(=O)N1CCC2(CC1)CCN(c1ccc(-c3ccccc3)cc1)CC2`, the Potency was inconclusive: 31.6 µM [inhibitor, single point].
For `COC(=O)c1ccc(Cn2c(O)c(N=O)c3ccccc32)o1`, the Potency was inconclusive: 28.2 µM [inhibitor, single point].
With `COc1ccc(NC(=S)N(CCCN2CCCC2)Cc2cccn2Cc2ccc(Cl)cc2)cc1Cl` the “activity change, negative = inhibition” value was inactive: 0%.
For `CCOC(=O)Cc1csc(NC(=O)c2ccc(Br)o2)n1`, the Potency was inconclusive: 44.7 µM [inhibitor, single point].
In the case of `Cc1cc(C)c(NC(=O)C[N+](C)(C)CC(O)COc2cccc3ccccc23)c(C)c1` (stereo not drawn), the Potency was inconclusive: 50.1 µM [inhibitor, partial curve, poor fit].
`COc1ccc(C(=O)COc2ccc(C#N)cc2OC)cc1Br` was tested, and the Potency was inconclusive: 141 µM [inhibitor, single point].
In the case of `C[C@H]1CN([C@@H](C)CO)S(=O)(=O)c2ccc(Br)cc2O[C@@H]1CN(C)C(=O)CCN1CCCCC1`, the Potency was inconclusive: 50.1 µM [inhibitor, partial curve, poor fit].
For `CCCOc1ccc(C(=O)N(CC(C)C)c2c(N)n(Cc3ccccc3)c(=O)[nH]c2=O)cc1`, the Potency was inconclusive: 63.1 µM [inhibitor, partial curve, poor fit].
In the case of `CCCNc1c(NC(=O)Nc2ccc(C)c(Cl)c2)c(=O)oc2ccccc12`, the Potency was inconclusive: 100 µM [inhibitor, single point].
`CCOc1ncccc1C(=O)N=C1SCCN1C(=O)c1cccnc1OCC` was tested, and the Potency was inconclusive: 79.4 µM [inhibitor, partial curve, poor fit].
`Cc1cccc(NC(=S)N(CCCN2CCCC2)Cc2cccn2Cc2ccc(Cl)cc2)c1` was tested, and the Potency was inconclusive: 35.5 µM [inhibitor, single point].
For `COc1cc(/C=N/N2C(=O)CSC2=S)cc(Br)c1O`, the Potency was inconclusive: 50.1 µM [inhibitor, partial curve, poor fit].
`COc1ccc(Cc2nc3ccc(C(=O)N(C)Cc4nccs4)cc3o2)cc1OC` was tested, and the “activity change, negative = inhibition” value was inactive: 0.325%.
`CCC(=O)N1CCc2c(sc3ncnc(N)c23)C1` was tested, and the “activity change, negative = inhibition” value was inactive: -8.18%.
In the case of `CC[n+]1c(C)sc2cc(OC)ccc21`, the Potency was inconclusive: 44.7 µM [inhibitor, partial curve].
In the case of `Cc1ccc(S(=O)(=O)N(Cc2n[nH]c(=S)n2-c2ccccc2)c2ccccc2)cc1`, the Potency was inconclusive: 89.1 µM [inhibitor, single point].
In the case of `Cc1ccccc1Cc1sc(N)nc1C`, the Potency was active: 14.1 µM.
`COc1ccc(OCC(=O)NC(Cc2c[nH]c3ccccc23)C(=O)O)cc1` (stereo not drawn) was tested, and the Potency was inconclusive: 56.2 µM [inhibitor, partial curve, poor fit].
In the case of `COc1cccc(/C=C2\SC(=S)N(CC3CCCO3)C2=O)c1` (stereo not drawn), the Potency was inconclusive: 126 µM [inhibitor, partial curve, poor fit].
In the case of `CCc1nnc(SC(CC)C(=O)Nc2cc(C)ccc2C)c2cc3occc3n12` (stereo not drawn), the “activity change, negative = inhibition” value was inactive: 0.21%.
`COc1cc2ccc(=O)oc2c(CC=C(C)C)c1OC` was tested, and the Potency was inconclusive: 89.1 µM [inhibitor, partial curve, poor fit].
With `CCN(CC)c1cc(Cl)c2nonc2c1N` the Potency was inconclusive: 2.82 µM [inhibitor, single point].
With `COc1cc(C(=O)N2CCN(C3CCC(C)CC3)CC2)cc(OC)c1OC` (stereo not drawn) the Potency was inconclusive: 2.51 µM [inhibitor, full curve, poor fit].
`COc1ccc(C(=O)Oc2ccc(C(=S)N3CCOCC3)cc2)cc1` was tested, and the Potency was inconclusive: 39.8 µM [inhibitor, partial curve].
`O=C1NCCOCCN(S(=O)(=O)c2cccc3cccnc23)[C@@H]2CCCC[C@H]12` was tested, and the Potency was inconclusive: 35.5 µM [inhibitor, partial curve].
In the case of `CC(C)C[C@@H]1COc2cc(N3CCOCC3)ccc2S(=O)(=O)N1`, the Potency was inconclusive: 39.8 µM [inhibitor, partial curve, poor fit].
`CC(C)(C)c1nc(CN2CCC(c3nc4ccccc4s3)CC2)no1` was tested, and the Potency was inconclusive: 0.891 µM [inhibitor, single point].
With `Cc1cc(Nc2ccc(Cl)cc2)n(-c2cccc(Cl)c2)n1` the Potency was inconclusive: 100 µM [inhibitor, partial curve, poor fit].
With `C[C@H](NC(=O)Cc1ccccc1)C(=O)N1CCC2(CC1)NCCc1[nH]cnc12` the “activity change, negative = inhibition” value was inactive: 1.4%.
For `O=c1[nH]c(C2CCCN(Cc3ccc(F)cc3)C2)nn1-c1ccc(Cl)cc1` (stereo not drawn), the Potency was inconclusive: 14.1 µM [inhibitor, full curve].
In the case of `N#Cc1c(NCCO)nc(-c2ccco2)c2c1CCCC2`, the Potency was inconclusive: 44.7 µM [inhibitor, partial curve, poor fit].
`COc1ccc(-c2csc(CCn3nc(C)c4c(C(F)(F)F)cc(=O)[nH]c43)n2)cc1` was tested, and the Potency was active: 17.8 µM.
In the case of `O=C(CN1CCN(Cc2cccc3cccnc23)CC1)NC1CC1`, the “activity change, negative = inhibition” value was inactive: 1.03%.
In the case of `O=S(=O)(c1ccc(F)cc1)c1nc(-c2ccc(F)cc2)oc1NCCN1CCOCC1`, the Potency was inconclusive: 50.1 µM [inhibitor, single point].
For `CCCC(C)C(=O)Nc1ncc(S(=O)(=O)c2ccc([N+](=O)[O-])cc2)s1` (stereo not drawn), the “activity change, negative = inhibition” value was inactive: -6.9%.
In the case of `Cc1ccc(Cn2cc(S(=O)(=O)c3ccc(Cl)cc3)c(=O)c3cc4c(cc32)OCO4)cc1`, the Potency was inconclusive: 112 µM [inhibitor, partial curve, poor fit].
`COC(=O)C1=C(C)N(Cc2ccc(Cl)cc2)C(=S)NC1c1cccc(F)c1` (stereo not drawn) was tested, and the Potency was inconclusive: 44.7 µM [inhibitor, partial curve, poor fit].
For `CCOC(=O)C1CCCN(C(=O)c2ccc3nc(-c4cccc(OC)c4)oc3c2)C1` (stereo not drawn), the “activity change, negative = inhibition” value was inactive: 500%.
With `O=C(Cc1ccccc1)Nn1cnc2ccccc21` the Potency was inconclusive: 0.316 µM [inhibitor, full curve, poor fit].
For `CCN1CCN(c2cc(C)c3cc(NC(=O)CCC(=O)Nc4ccc(OC)c(OC)c4)ccc3n2)CC1`, the Potency was inconclusive: 100 µM [inhibitor, single point].
